Data as given in paper PMC7733509.
No constants are given. Whether binding was seen depends on the method and setting. Binding seen in cells or lysates may run through a third protein. Some results given as binding are weak or reduced against the parent protein; the word gives no strength.

Chains of the proteins cited; added tags and fusions are not shown.
UniProt Q5DW34: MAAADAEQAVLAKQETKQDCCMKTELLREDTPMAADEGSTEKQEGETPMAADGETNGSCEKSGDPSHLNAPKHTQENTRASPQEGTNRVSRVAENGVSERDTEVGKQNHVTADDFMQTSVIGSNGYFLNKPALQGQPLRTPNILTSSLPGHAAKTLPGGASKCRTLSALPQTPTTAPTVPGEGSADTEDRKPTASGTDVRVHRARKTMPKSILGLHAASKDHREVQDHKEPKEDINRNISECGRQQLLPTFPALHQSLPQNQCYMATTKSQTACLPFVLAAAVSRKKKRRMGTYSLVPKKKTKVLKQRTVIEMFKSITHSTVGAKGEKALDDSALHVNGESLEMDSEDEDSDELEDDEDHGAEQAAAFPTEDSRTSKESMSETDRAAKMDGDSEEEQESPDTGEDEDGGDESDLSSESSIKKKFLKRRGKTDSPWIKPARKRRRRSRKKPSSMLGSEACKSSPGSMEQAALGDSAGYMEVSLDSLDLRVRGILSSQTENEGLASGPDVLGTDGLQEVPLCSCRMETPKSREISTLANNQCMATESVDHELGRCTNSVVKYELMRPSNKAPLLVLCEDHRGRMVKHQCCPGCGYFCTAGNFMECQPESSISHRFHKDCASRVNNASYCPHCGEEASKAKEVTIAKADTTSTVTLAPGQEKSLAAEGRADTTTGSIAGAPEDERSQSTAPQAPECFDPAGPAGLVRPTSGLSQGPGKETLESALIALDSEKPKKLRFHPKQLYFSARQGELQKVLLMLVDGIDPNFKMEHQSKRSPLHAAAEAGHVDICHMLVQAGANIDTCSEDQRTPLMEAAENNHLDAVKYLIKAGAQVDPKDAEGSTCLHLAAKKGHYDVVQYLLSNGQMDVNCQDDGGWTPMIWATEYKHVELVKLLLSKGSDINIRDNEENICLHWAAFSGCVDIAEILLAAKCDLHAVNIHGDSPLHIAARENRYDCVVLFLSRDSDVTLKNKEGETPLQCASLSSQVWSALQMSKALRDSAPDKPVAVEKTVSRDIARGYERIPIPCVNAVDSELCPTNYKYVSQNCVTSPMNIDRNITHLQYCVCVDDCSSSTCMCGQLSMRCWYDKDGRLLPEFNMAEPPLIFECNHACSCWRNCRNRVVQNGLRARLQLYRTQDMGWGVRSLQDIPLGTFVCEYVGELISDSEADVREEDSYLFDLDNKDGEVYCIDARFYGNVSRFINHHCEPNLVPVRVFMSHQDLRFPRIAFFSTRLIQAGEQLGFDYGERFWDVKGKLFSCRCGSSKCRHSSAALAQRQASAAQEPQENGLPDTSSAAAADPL
UniProt P70351: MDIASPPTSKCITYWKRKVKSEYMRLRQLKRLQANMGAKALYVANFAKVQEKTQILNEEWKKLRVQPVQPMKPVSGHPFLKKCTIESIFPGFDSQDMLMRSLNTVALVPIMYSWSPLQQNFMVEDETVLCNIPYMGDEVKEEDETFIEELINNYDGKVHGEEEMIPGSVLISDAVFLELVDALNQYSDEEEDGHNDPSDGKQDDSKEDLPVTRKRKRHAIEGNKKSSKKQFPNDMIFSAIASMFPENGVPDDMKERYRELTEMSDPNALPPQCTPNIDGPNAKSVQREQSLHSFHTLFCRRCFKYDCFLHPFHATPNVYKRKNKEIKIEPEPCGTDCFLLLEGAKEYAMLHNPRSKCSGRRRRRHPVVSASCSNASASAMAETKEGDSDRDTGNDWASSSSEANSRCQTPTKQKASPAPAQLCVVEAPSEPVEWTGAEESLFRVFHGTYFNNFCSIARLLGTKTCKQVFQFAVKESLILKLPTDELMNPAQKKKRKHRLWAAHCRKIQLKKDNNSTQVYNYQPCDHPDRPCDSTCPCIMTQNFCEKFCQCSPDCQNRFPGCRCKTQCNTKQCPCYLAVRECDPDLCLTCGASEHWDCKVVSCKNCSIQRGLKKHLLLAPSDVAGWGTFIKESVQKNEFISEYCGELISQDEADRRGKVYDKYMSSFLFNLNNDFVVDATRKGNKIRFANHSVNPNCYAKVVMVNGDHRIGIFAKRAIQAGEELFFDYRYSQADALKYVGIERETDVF
UniProt Q61188: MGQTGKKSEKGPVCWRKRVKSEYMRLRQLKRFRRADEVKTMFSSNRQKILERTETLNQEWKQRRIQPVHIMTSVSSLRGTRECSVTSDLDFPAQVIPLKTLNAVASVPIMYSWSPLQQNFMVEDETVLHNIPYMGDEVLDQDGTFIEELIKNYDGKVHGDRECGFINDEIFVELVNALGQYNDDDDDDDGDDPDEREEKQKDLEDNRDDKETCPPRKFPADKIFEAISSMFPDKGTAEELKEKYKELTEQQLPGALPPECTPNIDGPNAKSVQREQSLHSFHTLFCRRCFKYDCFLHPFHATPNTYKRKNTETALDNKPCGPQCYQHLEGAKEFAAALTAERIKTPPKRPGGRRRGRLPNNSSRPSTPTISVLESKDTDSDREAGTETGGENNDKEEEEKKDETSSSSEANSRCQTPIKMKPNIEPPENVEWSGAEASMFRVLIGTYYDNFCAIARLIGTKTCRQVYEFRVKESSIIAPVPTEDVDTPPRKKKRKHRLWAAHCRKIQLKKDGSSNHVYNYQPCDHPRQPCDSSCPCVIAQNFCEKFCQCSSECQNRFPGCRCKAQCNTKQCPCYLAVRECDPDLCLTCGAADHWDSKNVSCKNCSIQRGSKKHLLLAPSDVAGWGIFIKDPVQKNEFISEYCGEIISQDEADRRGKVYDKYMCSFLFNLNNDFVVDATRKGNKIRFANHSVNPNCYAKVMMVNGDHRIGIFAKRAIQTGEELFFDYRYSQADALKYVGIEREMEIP

Biological target: EHMT1-HA (mouse) (UniProt Q5DW34)
Assay: co-IP; EHMT1-HA co-transfected into HEK293T cells with EZH1-Myc, EZH2-Myc or Myc-Vector; anti-HA used to precipitate EHMT1 and associated proteins; immunoblot

Row | binding | Substance
1 | binds | EZH1-Myc (from UniProt P70351 1-747)
2 | binds | EZH2-Myc (from UniProt Q61188 1-746)
